# The supplement of paper PMC8728848
# The other results are listed elsewhere or left out.
# B1: SspB (Streptococcus gordonii), P16952 (protein)
# chain: MKNKKEVYGFRKSKVAKTLCGAVLGTALIAFADKAVFADEVTETTSTSTVEVATTGNPATNLPEAQGEMSQVAKESQAKAGSKESALPVEVSSADLDKAVADAKSAGVKVVQDETKDKGTATTATDNAQKQDEIKSDYAKQAEEIKTTTEAYKKEVAAHQAETDKINAENKAADDKYQKDLKSHQEEVEKINTANATAKAEYEAKLAQYQKDLATVKKANEDSQQDYQNKLSAYQTELARVQKANAEAKEAYEKAVKENTAKNEALKVENEAIKQRNETAKATYEAAMKQYEADLAAIKKANEDNDADYQAKLAAYQTELARVQKANAEAKEAYDKAVKENTAKNTAIQAENEAIKQRNETAKATYDAAVKKYEADLAAVKQANATNEADYQAKLAAYQTELARVQKANADAKATYEKAVEDNKAKNAAIKAENEEIKQRNAVAKTDYEAKLAKYEADLAKYKKEFAAYTAALAEAESKKKQDGYLSEPRSQSLNFKSEPNAIRTIDSSVHQYGQQELDALVKSWGISPTNPDRKKSRAYSYFNAINSNNTYAKLVLEKDKPVDVTYTGLKNSSFNGKKISKVVYTYTLKETGFNDGTKMTMFASSDPTVTAWYNDYFTSTNINVKVKFYDEEGQLMNLTGGLVNFSSLNRGNGSGAIDKDAIESVRNFNGRYIPISGSSIKIHENNSAYADSSNAEKSLGARWNTSEWDTTSSPNNWYGAIVGEITQSEISFNMASSKSGNIWFAFNSNINAIGVPTKPVAPTAPTQPMYETEKPLEPAPVAPSYENEPTPPVKTPDQPEPSKPEEPTYETEKPLEPAPVAPSYENEPTPPVKTPDQPEPSKPEEPNYETEKPLEPAPVAPSYENEPTPPVKIPDQPEPSKPEEPTYDPLPTPPLAPTPKQLPTPPVVPTVHFHYSSLLAQPQINKEIKNEDGVDIDRTLVAKQSIVKFELKTEALTAGRPKTTSFVLVDPLPTGYKFDLDATKAASTGFDTTYDEASHTVTFKATDETLATYNADLTKPVETLHPTVVGRVLNDGATYTNNFTLTVNDAYGIKSNVVRVTTPGKPNDPDNPNNNYIKPTKVNKNKEGLNIDGKEVLAGSTNYYELTWDLDQYKGDKSSKEAIQNGFYYVDDYPEEALDVRPDLVKVADEKGNQVSGVSVQQYDSLEAAPKKVQDLLKKANITVKGAFQLFSADNPEEFYKQYVATGTSLVITDPMTVKSEFGKTGGKYENKAYQIDFGNGYATEVVVNNVPKITPKKDVTVSLDPTSENLDGQTVQLYQTFNYRLIGGLIPQNHSEELEDYSFVDDYDQAGDQYTGNYKTFSSLNLTMKDGSVIKAGTDLTSQTTAETDATNGIVTVRFKEDFLQKISLDSPFQAETYLQMRRIAIGTFENTYVNTVNKVAYASNTVRTTTPIPRTPDKPTPIPTPKPKDPDKPETPKEPKVPSPKVEDPSAPIPVSVGKELTTLPKTGTNDATYMPYLGLAALVGFLGLGLAKRKED
# Assays:
# Test in all cases: glycan array binding signal (z-score within array); higher = stronger binding
# Conditions in all cases: glycan notation: IUPAC condensed, linker removed
# [1] = biological target: Gal3S(b1-4)[Fuc(a1-3)]Glc
# In short: (§1)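 Arrays were curated from the Consortium for Functional Glycomics database, 3228 in total, and kept only where the protein sequence was available. Binding is expressed as a within-array Z-score. This score was averaged across arrays of the same protein sequence at different concentrations or buffers and across linkers, and negative values can be read as non-binding.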
# [2] = biological target: Gal3S(b1-4)[Fuc(a1-3)]Glc6S
# In short: as §1
# Gal3S4S(b1-4)GlcNAc = biological target: Gal3S4S(b1-4)GlcNAc
# In short: as §1
# Gal3S6S(b1-4)GlcNAc = biological target: Gal3S6S(b1-4)GlcNAc
# In short: as §1
# Gal3S6S(b1-4)GlcNAc6S = biological target: Gal3S6S(b1-4)GlcNAc6S
# In short: as §1
# Gal4S(b1-4)GlcNAc = biological target: Gal4S(b1-4)GlcNAc
# In short: as §1
# Gal4S6S(b1-4)GlcNAc = biological target: Gal4S6S(b1-4)GlcNAc
# In short: as §1
# Gal6S(b1-4)Glc = biological target: Gal6S(b1-4)Glc
# In short: as §1
# Gal6S(b1-4)Glc6S = biological target: Gal6S(b1-4)Glc6S
# In short: as §1
# Gal6S(b1-4)GlcNAc = biological target: Gal6S(b1-4)GlcNAc
# In short: as §1
# Gal6S(b1-4)GlcNAc6S = biological target: Gal6S(b1-4)GlcNAc6S
# In short: as §1
# GalNAc(a1-3)Gal = biological target: GalNAc(a1-3)Gal
# In short: as §1
# GalNAc(a1-3)GalNAc = biological target: GalNAc(a1-3)GalNAc
# In short: as §1
# [3] = biological target: GalNAc(a1-3)GalNAc(a1-3)Gal(a1-4)Gal(b1-4)GlcNAc
# In short: as §1
# GalNAc(b1-3)Gal = biological target: GalNAc(b1-3)Gal
# In short: as §1
# [4] = biological target: GalNAc(b1-3)Gal(a1-4)Gal(b1-4)GlcNAc
# In short: as §1
# [5] = biological target: GalNAc(b1-3)Gal(a1-4)Gal(b1-4)GlcNAc(b1-3)Gal(b1-4)Glc
# In short: as §1
# [6] = biological target: GalNAc(b1-3)Gal(a1-6)Gal(b1-4)Glc
# In short: as §1
# GalNAc(b1-3)GalNAc = biological target: GalNAc(b1-3)GalNAc
# In short: as §1
# GalNAc(b1-4)GlcNAc = biological target: GalNAc(b1-4)GlcNAc
# In short: as §1
# [7] = biological target: GalNAc(b1-4)GlcNAc(b1-2)Man(a1-3)[GalNAc(b1-4)GlcNAc(b1-2)Man(a1-6)]Man(b1-4)GlcNAc(b1-4)GlcNAc
# In short: as §1
# Glc(a1-4)Glc = biological target: Glc(a1-4)Glc
# In short: as §1
binder,measurement,setting,value
B1,glycan array binding signal (z-score),[1],0.344
same,glycan array binding signal (z-score),[2],-0.011
same,glycan array binding signal (z-score),Gal3S4S(b1-4)GlcNAc,-0.545
same,glycan array binding signal (z-score),Gal3S6S(b1-4)GlcNAc,0.347
same,glycan array binding signal (z-score),Gal3S6S(b1-4)GlcNAc6S,-1.04
same,glycan array binding signal (z-score),Gal4S(b1-4)GlcNAc,-0.002
same,glycan array binding signal (z-score),Gal4S6S(b1-4)GlcNAc,-2.25
same,glycan array binding signal (z-score),Gal6S(b1-4)Glc,0.165
same,glycan array binding signal (z-score),Gal6S(b1-4)Glc6S,0.321
same,glycan array binding signal (z-score),Gal6S(b1-4)GlcNAc,1.27
same,glycan array binding signal (z-score),Gal6S(b1-4)GlcNAc6S,-1.28
same,glycan array binding signal (z-score),GalNAc(a1-3)Gal,0.111
same,glycan array binding signal (z-score),GalNAc(a1-3)GalNAc,-0.125
same,glycan array binding signal (z-score),[3],0.985
same,glycan array binding signal (z-score),GalNAc(b1-3)Gal,-0.556
same,glycan array binding signal (z-score),[4],0.073
same,glycan array binding signal (z-score),[5],-1.02
same,glycan array binding signal (z-score),[6],-0.859
same,glycan array binding signal (z-score),GalNAc(b1-3)GalNAc,-1.34
same,glycan array binding signal (z-score),GalNAc(b1-4)GlcNAc,0.298
same,glycan array binding signal (z-score),[7],1.48
same,glycan array binding signal (z-score),Glc(a1-4)Glc,-1.18

# At a glance, some entries already given:
binder,measurement,setting,value
B1,glycan array binding signal (z-score),[5],-1.02
same,glycan array binding signal (z-score),[6],-0.859
same,glycan array binding signal (z-score),GalNAc(b1-3)GalNAc,-1.34
same,glycan array binding signal (z-score),GalNAc(b1-4)GlcNAc,0.298
